Experimental data as given in patent US20190083521A1, “COMBINATION THERAPY FOR TREATING CANCER” (Epizyme, Inc., priority 2014, published 2019).
Counter-ions that a name gives are not always drawn. The name of at least one read-out is uncertain. Some entries repeat one wording, which the source may state once for all of them. For part of these data: At least one structure is not confirmed: it was looked up by name or label, or the drawing left a doubt.

Legend:
Format in all cases: cell-based, human
MOLM-13 (MLL-AF9) cells = test: Combination proliferation assay with Compound A2 (CellTiter-Glo, Chou-Talalay CI); conditions: 7 Day Cotreatment Model
Description: (§1) The acute myelogenous leukemia cell lines MV4-11 (MLL-AF4) and MOLM-13 (MLL-AF9) were obtained from American Type Culture Collection (ATCC; Rockville, Md.) and Deutsche Sammlung von Mikroorganismen and Zellkulturen (DSMZ; Braunschweig, Germany) respectively.
(§2) Studies were performed using MLL-rearranged cell lines in vitro to evaluate the anti-proliferative effect of a combination of two agents together on cell growth. Initial proliferation studies were performed to determine the IC50 of a given compound in each cell line. The cell counts were measured by ATP quantitation using the Promega Cell Titer Glo kit and luminescence values corresponded to the amount of ATP in a given well.
(§3) Compounds were evaluated for synergy in the co-treatment phase by testing the compounds in a concentration range which was bracketed around their IC50 values. The compounds were plated to a 96 well plate in a matrix format (FIG. 3) which includes increasing concentrations of each drug in the combination in a constant ratio, in addition to the effect of each compound alone in the study. Cells were seeded and grown in the log-linear phase for 3 or 7 days in the co-treatment phase. Minimum inhibition (DMSO alone) controls were used in each plate to calculate fraction affected (Fa) of a test well. DMSO concentration was kept at 0.1% v/v.
(§4) The drug combination analysis was performed utilizing the Chou-Talalay method Synergy was determined using the software package Calcusyn by Biosoft. The combination index (CI) is a quantitative term used to describe the level of synergy or antagonism in a given test system. A combination index less than one indicates synergy, and a CI greater than one indicates antagonism. Further, strong synergism is achieved when the CI value falls below 0.3.
(§5) The HP-D300 digital dispenser (Tecan) was used to dispense compounds in a combinatorial matrix. […] Cell viability was measured via ATP content using CellTiter-Glo® (Promega).
(§6) Viability was determined using CellTiter-Glo® (Promega).
Cell viability was measured via ATP content using CellTiter-Glo® (Promega).
as §2, with “Proliferation studies” for “Studies”, “MOLM-13, MV4-11 and SKM-1” for “MLL-rearranged”, “cancer cell killing” for “anti-proliferative”, “IC50 values” for “IC50”, “correspond” for “corresponded”
(§7) These studies were performed to evaluate both the combinatorial effect of compounds on cell killing and the durability of the effect by washing out one of the agents.
(§8) Compounds evaluated for synergy in the co-treatment phase were tested in a range which was bracketed around the IC50's. The compounds were plated to a 96 well plate in a matrix format which includes increasing concentrations of each drug in the combination in a constant ratio, in addition to the effect of each compound alone in the study. Cells were seeded and grown in the log-linear phase for 3 or 7 days in the cotreatment phase. Maximum and minimum inhibition (DMSO alone) controls were used in each plate to calculate fraction affected (Fa) of a test well. DMSO concentration was kept at 0.1% v/v. The drug combination analysis was performed utilizing the Chou-Talalay method. Synergy was determined using the software package Calcusyn by Biosoft. The combination index (CI) is the term used to describe the level of synergy or antagonism in a given test system. A combination index less than one indicates synergy, and a CI greater than one indicates antagonism.
(§9) The drug combination analysis was performed using the Chou-Talalay method. Graphs representing values of combination index (CI) versus Fractional effect (Fa) known as Fa-CI plots were generated and synergy was evaluated.

MV4-11 (MLL-AF4) cells = test: as above; conditions: MV4-11 (MLL-AF4); 7 Day Cotreatment Model
Description: as §1, §2, §3, §4, §5, §6
as §2, with “Proliferation studies” for “Studies”, “MOLM-13, MV4-11 and SKM-1” for “MLL-rearranged”, “cancer cell killing” for “anti-proliferative”, “IC50 values” for “IC50”, “correspond” for “corresponded”
as §7, §8
as §9, with “evaluated. Drug synergy was statistically defined by CI values less than 1, antagonism by CI>1 and additive effect by CI equal to 1.” for “evaluated.”

MOLM-13 cells = test: Example 6 combination screen: 300 nM EPZ-5676 pre-treatment, second compound 72 h, ATPLite, IC50 shift; conditions: 300 nM EPZ-5676 pre-treatment (4 + 3 days) vs DMSO, then 2nd compound 72 h, IC50 shift of 2nd compound
Description: Cells were then equilibrated in incubators for 24 hours before treatment with a second compound. Treated assay plates were incubated with a second compound for 72 hours. After this time, plates were developed for endpoint analysis using ATPLite to measure ATP content, which is used as an indicator of cell viability.
“N/D” means that IC50 of the second compound could not be determined for both conditions.

SMILES: C[C@]12C=CC(=O)C=C1CC[C@@H]1[C@@H]2[C@@H](O)C[C@@]2(C)[C@H]1CC[C@]2(O)C(=O)CO [Prednisolone]
- Combination effect with Compound A2 (Table 4) (MOLM-13 (MLL-AF9) cells): Antagonistic (antagonism by CI>1)
- Combination effect with Compound A2 (Table 4) (MV4-11 (MLL-AF4) cells): Antagonistic (antagonism by CI>1)

SMILES: Nc1nc(Cl)nc2c1ncn2[C@@H]1O[C@H](CO)[C@@H](O)[C@@H]1F [Clofarabine]
- Combination effect with Compound A2 (Table 4) (MOLM-13 (MLL-AF9) cells): Synergy (Drug synergy was statistically defined by CI values less than 1)
- Combination effect with Compound A2 (Table 4) (MV4-11 (MLL-AF4) cells): Synergy (Drug synergy was statistically defined by CI values less than 1)

SMILES: Nc1nc(F)nc2c1ncn2[C@@H]1O[C@H](CO)[C@@H](O)[C@@H]1O [Fludarabine]
- Combination effect with Compound A2 (Table 4) (MOLM-13 (MLL-AF9) cells): Synergy (Drug synergy was statistically defined by CI values less than 1)

SMILES: CC(C)(C)c1cc(NC(=O)Nc2ccc(-c3cn4c(n3)sc3cc(OCCN5CCOCC5)ccc34)cc2)no1 [Quizartinib]
- Combination effect with Compound A2 (Table 4) (MOLM-13 (MLL-AF9) cells): Synergy (Drug synergy was statistically defined by CI values less than 1)

SMILES: COC1=CC(c2cc3ccccc3[nH]2)=N/C1=C\c1[nH]c(C)cc1C [Obatoclax]
- Combination effect with Compound A2 (Table 4) (MOLM-13 (MLL-AF9) cells): Additive (additive effect by CI equal to 1)

SMILES: CC(=O)c1c(C)c2cnc(Nc3ccc(N4CCNCC4)cn3)nc2n(C2CCCC2)c1=O [Palbociclib]
- Combination effect with Compound A2 (Table 4) (MOLM-13 (MLL-AF9) cells): Synergy (Drug synergy was statistically defined by CI values less than 1)
- Combination effect with Compound A2 (Table 4) (MV4-11 (MLL-AF4) cells): Synergy (Drug synergy was statistically defined by CI values less than 1)

SMILES: C=CC(=O)N1CCC[C@@H](n2nc(-c3ccc(Oc4ccccc4)cc3)c3c(N)ncnc32)C1 [Ibrutinib]
- Combination effect with Compound A2 (Table 4) (MOLM-13 (MLL-AF9) cells): Antagonistic/Additive
- Combination effect with Compound A2 (Table 4) (MV4-11 (MLL-AF4) cells): Synergy (Drug synergy was statistically defined by CI values less than 1)

SMILES: CC[C@]1(O)C[C@H]2CN(CCc3c([nH]c4ccccc34)[C@@](C(=O)OC)(c3cc4c(cc3OC)N(C=O)[C@H]3[C@@](O)(C(=O)OC)[C@H](OC(C)=O)[C@]5(CC)C=CCN6CC[C@]43[C@@H]65)C2)C1 [Vincristine]
- Combination effect with Compound A2 (Table 4) (MOLM-13 (MLL-AF9) cells): Additive (additive effect by CI equal to 1)
- Combination effect with Compound A2 (Table 4) (MV4-11 (MLL-AF4) cells): Additive (additive effect by CI equal to 1)

SMILES: S=c1nc[nH]c2nc[nH]c12 [Mercaptopurine]
- Combination effect with Compound A2 (Table 4) (MV4-11 (MLL-AF4) cells): Additive (additive effect by CI equal to 1)

SMILES: COc1cc2c(cc1-c1c(C)noc1C)ncc1[nH]c(=O)n([C@H](C)c3ccccn3)c12 [IBET-151]
- Combination effect with Compound A2 (Table 4) (MOLM-13 (MLL-AF9) cells): Synergy (Drug synergy was statistically defined by CI values less than 1)

SMILES: O=C1c2c(O)ccc(O)c2C(=O)c2c(NCCNCCO)ccc(NCCNCCO)c21 [Mitoxantrone]
- Combination effect with Compound A2 (Table 4) (MOLM-13 (MLL-AF9) cells): Synergy (Drug synergy was statistically defined by CI values less than 1)
- Combination effect with Compound A2 (Table 4) (MV4-11 (MLL-AF4) cells): Synergy (Drug synergy was statistically defined by CI values less than 1)

SMILES: Nc1ncn([C@@H]2O[C@H](CO)[C@@H](O)[C@H]2O)c(=O)n1 [Azacitidine]
- Combination effect with Compound A2 (Table 4) (MV4-11 (MLL-AF4) cells): Synergy (Drug synergy was statistically defined by CI values less than 1)

SMILES: CO[C@@H]1[C@H](N(C)C(=O)c2ccccc2)C[C@H]2O[C@]1(C)n1c3ccccc3c3c4c(c5c6ccccc6n2c5c31)C(=O)NC4 [Midostaurin]
- Combination effect with Compound A2 (Table 4) (MOLM-13 (MLL-AF9) cells): Additive--> Synergy
- Combination effect with Compound A2 (Table 4) (MV4-11 (MLL-AF4) cells): Synergy (Drug synergy was statistically defined by CI values less than 1)

SMILES: CC1(C)CCC(c2ccc(Cl)cc2)=C(CN2CCN(c3ccc(C(=O)NS(=O)(=O)c4ccc(N[C@H](CCN5CCOCC5)CSc5ccccc5)c(S(=O)(=O)C(F)(F)F)c4)cc3)CC2)C1 [Navitoclax]
- Combination effect with Compound A2 (Table 4) (MOLM-13 (MLL-AF9) cells): Synergy (Drug synergy was statistically defined by CI values less than 1)
- Combination effect with Compound A2 (Table 4) (MV4-11 (MLL-AF4) cells): Synergy (Drug synergy was statistically defined by CI values less than 1)

SMILES: CN(Cc1cnc2nc(N)nc(N)c2n1)c1ccc(C(=O)N[C@@H](CCC(=O)O)C(=O)O)cc1 [Methotrexate]
- Combination effect with Compound A2 (Table 4) (MOLM-13 (MLL-AF9) cells): Additive (additive effect by CI equal to 1)
- Combination effect with Compound A2 (Table 4) (MV4-11 (MLL-AF4) cells): Additive (additive effect by CI equal to 1)

SMILES: NC(=O)NO [Hydroxyurea]
- Combination effect with Compound A2 (Table 4) (MOLM-13 (MLL-AF9) cells): Synergy (Drug synergy was statistically defined by CI values less than 1)
- Combination effect with Compound A2 (Table 4) (MV4-11 (MLL-AF4) cells): Synergy (Drug synergy was statistically defined by CI values less than 1)

SMILES: Cc1[nH]c2ccccc2c1CCNCc1ccc(/C=C/C(=O)NO)cc1 [Panobinostat]
- Combination effect with Compound A2 (Table 4) (MOLM-13 (MLL-AF9) cells): Synergy (Drug synergy was statistically defined by CI values less than 1)
- Combination effect with Compound A2 (Table 4) (MV4-11 (MLL-AF4) cells): Antagonistic (antagonism by CI>1)

SMILES: CC[C@@]1(O)C(=O)OCc2c1cc1n(c2=O)Cc2cc3c(CN(C)C)c(O)ccc3nc2-1 [Topotecan Hydrochloride]
- Summary of Combination Studies: MOLM-13 (MOLM-13 cells): Synergy (considered synergistic if the IC50 value of the second compound decreased by 2-fold or more when EPZ-5676 was added as compared to the DMSO control)

SMILES: Cc1cnc(NC(=O)Nc2cc(Br)c(C)cc2OC[C@@H]2CNCCO2)cn1 [LY2603618]
- Summary of Combination Studies: MOLM-13 (MOLM-13 cells): Synergy (considered synergistic if the IC50 value of the second compound decreased by 2-fold or more when EPZ-5676 was added as compared to the DMSO control)

SMILES: CS(=O)(=O)N1CCN(Cc2cc3nc(-c4cccc5[nH]ncc45)nc(N4CCOCC4)c3s2)CC1 [GDC-0941]
- Summary of Combination Studies: MOLM-13 (MOLM-13 cells): Synergy (considered synergistic if the IC50 value of the second compound decreased by 2-fold or more when EPZ-5676 was added as compared to the DMSO control)

SMILES: CO[C@H]1C[C@@H]2CC[C@@H](C)[C@@](O)(O2)C(=O)C(=O)N2CCCC[C@H]2C(=O)O[C@H]([C@H](C)C[C@@H]2CC[C@@H](OCCO)[C@H](OC)C2)CC(=O)[C@H](C)/C=C(\C)[C@@H](O)[C@@H](OC)C(=O)[C@H](C)C[C@H](C)/C=C/C=C/C=C/1C [Everolimus]
- Summary of Combination Studies: MOLM-13 (MOLM-13 cells): Synergy (considered synergistic if the IC50 value of the second compound decreased by 2-fold or more when EPZ-5676 was added as compared to the DMSO control)

SMILES: COc1cc([C@@H]2c3cc4c(cc3[C@@H](O[C@@H]3O[C@@H]5CO[C@@H](C)O[C@H]5[C@H](O)[C@H]3O)[C@H]3COC(=O)[C@H]23)OCO4)cc(OC)c1O [Etoposide]
- Summary of Combination Studies: MOLM-13 (MOLM-13 cells): Synergy (considered synergistic if the IC50 value of the second compound decreased by 2-fold or more when EPZ-5676 was added as compared to the DMSO control)

SMILES: CC1(C)CCC(CN2CCN(c3ccc(C(=O)NS(=O)(=O)c4ccc(NCC5CCOCC5)c([N+](=O)[O-])c4)c(Oc4cnc5[nH]ccc5c4)c3)CC2)=C(c2ccc(Cl)cc2)C1 [ABT-199]
- Combination effect with Compound A2 (Table 4) (MV4-11 (MLL-AF4) cells): Synergy (Drug synergy was statistically defined by CI values less than 1)

SMILES: O=C(CCCCCCC(=O)Nc1ccccc1)NO [Vorinostat]
- Combination effect with Compound A2 (Table 4) (MV4-11 (MLL-AF4) cells): Antagonistic (antagonism by CI>1)

SMILES: COc1cc(Nc2ncc(F)c(Nc3ccc4c(n3)N(COP(=O)(O)O)C(=O)C(C)(C)O4)n2)cc(OC)c1OC [Fostamatinib disodium]
- Summary of Combination Studies: MOLM-13 (MOLM-13 cells): Synergy (considered synergistic if the IC50 value of the second compound decreased by 2-fold or more when EPZ-5676 was added as compared to the DMSO control)
